Data as given in PubChem BioAssay AID493246 (Drosophila RNAi Screening Center, 2011).
Test: 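Genes fly cells need to grow and stay alive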 (primary screen). Cell system: Drosophila Kc and S2R+ cells. Knock-down reagent: long dsRNA against Drosophila genes. Measured: 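Raw, unnormalised count of remaining cells in each well; per-plate z-scores of cell number underlie the calls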. Scale: Kc cell number and S2R+ cell number: higher = more cells remaining. Rule for the call: 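Active when the per-plate z-score of cell number is 3 or more in the direction of fewer cells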.
In all, the deposit lists about 21,000 reagents; below is an unselected part of those with a known target gene and a result. Of all reagents, 429 (2%) were called active. 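Values are raw and not normalised between plates; calls rest on per-plate z-scores that were not deposited.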 The numbers tell different reagents against one gene apart. A plus sign joins genes that one reagent is predicted to hit. Not given: the amount of reagent, the time to read-out.

| gene | reagent | Kc cell number, rep 1 | Kc cell number, rep 2 | S2R+ cell number, rep 1 | S2R+ cell number, rep 2 | activity call |
| --- | --- | --- | --- | --- | --- | --- |
| CG31459 | 1 | 1.43e6 | 1.41e6 | 9.98e5 | 1.11e6 | inactive |
| CG15728 | 1 | 1.63e6 | 1.57e6 | 1.07e6 | 1.18e6 | inactive |
| CG15084 | 1 | 1.52e6 | 1.51e6 | 1.11e6 | 1.21e6 | inactive |
| Gem2 | 1 | 1.53e6 | 1.51e6 | 1.32e6 | 1.44e6 | inactive |
| CG13227 | 1 | 1.61e6 | 1.61e6 | 1.29e6 | 1.36e6 | inactive |
| CG3224 | 1 | 1.35e6 | 1.42e6 | 9.24e5 | 1.09e6 | inactive |
| CG18809 | 1 | 1.51e6 | 1.53e6 | 1.07e6 | 1.11e6 | inactive |
| CG14722 | 1 | 1.62e6 | 1.72e6 | 1.18e6 | 1.25e6 | inactive |
| RpS8 | 1 | 9.31e5 | 9.55e5 | 7.36e5 | 8.50e5 | active |
| stas | 1 | 1.76e6 | 1.74e6 | 1.10e6 | 1.19e6 | inactive |
| mthl11 | 1 | 1.39e6 | 1.36e6 | 1.02e6 | 1.17e6 | inactive |
| Fip1 | 1 | 1.60e6 | 1.55e6 | 1.21e6 | 1.25e6 | inactive |
| CG9121 | 1 | 1.59e6 | 1.49e6 | 1.13e6 | 1.31e6 | inactive |
| asf1 | 1 | 1.42e6 | 1.48e6 | 1.09e6 | 1.12e6 | inactive |
| pxb | 1 | 1.55e6 | 1.73e6 | 1.08e6 | 1.34e6 | inactive |
| pxb | 2 | 1.42e6 | 1.42e6 | 1.13e6 | 1.25e6 | inactive |
| pxb | 3 | 1.42e6 | 1.43e6 | 1.15e6 | 1.28e6 | inactive |
| scpr-B | 1 | 1.49e6 | 1.52e6 | 1.20e6 | 1.26e6 | inactive |
| Tret1-2 | 1 | 1.53e6 | 1.58e6 | 1.28e6 | 1.34e6 | inactive |

Not a retest: entries from further up.
| gene | reagent | Kc cell number, rep 1 | Kc cell number, rep 2 | S2R+ cell number, rep 1 | S2R+ cell number, rep 2 | activity call |
| --- | --- | --- | --- | --- | --- | --- |
| CG15084 | 1 | 1.52e6 | 1.51e6 | 1.11e6 | 1.21e6 | inactive |
| Gem2 | 1 | 1.53e6 | 1.51e6 | 1.32e6 | 1.44e6 | inactive |
| CG13227 | 1 | 1.61e6 | 1.61e6 | 1.29e6 | 1.36e6 | inactive |
| CG3224 | 1 | 1.35e6 | 1.42e6 | 9.24e5 | 1.09e6 | inactive |
| CG18809 | 1 | 1.51e6 | 1.53e6 | 1.07e6 | 1.11e6 | inactive |
| CG14722 | 1 | 1.62e6 | 1.72e6 | 1.18e6 | 1.25e6 | inactive |
| RpS8 | 1 | 9.31e5 | 9.55e5 | 7.36e5 | 8.50e5 | active |
| stas | 1 | 1.76e6 | 1.74e6 | 1.10e6 | 1.19e6 | inactive |

The listing continues:
| gene | reagent | Kc cell number, rep 1 | Kc cell number, rep 2 | S2R+ cell number, rep 1 | S2R+ cell number, rep 2 | activity call |
| --- | --- | --- | --- | --- | --- | --- |
| pk | 1 | 1.55e6 | 1.61e6 | 1.32e6 | 1.45e6 | inactive |
| pk | 2 | 1.64e6 | 1.81e6 | 1.33e6 | 1.44e6 | inactive |
| CG31637 | 1 | 1.20e6 | 1.40e6 | 4.30e5 | 3.50e5 | inactive |
| CG31637 | 2 | 1.64e6 | 1.60e6 | 1.18e6 | 1.41e6 | inactive |
| CG5916 | 1 | 1.54e6 | 1.54e6 | 1.23e6 | 1.23e6 | inactive |
| Nubp1 | 1 | 1.38e6 | 1.43e6 | 1.40e6 | 1.38e6 | inactive |
| CG7120 | 1 | 1.54e6 | 1.47e6 | 1.23e6 | 1.27e6 | inactive |
| CG7182 | 1 | 1.33e6 | 1.42e6 | 1.34e6 | 1.08e6 | inactive |
| Muc11A | 1 | 1.46e6 | 1.47e6 | 1.11e6 | 1.17e6 | inactive |
| elg1 | 1 | 1.60e6 | 1.58e6 | 1.45e6 | 1.48e6 | inactive |
| CG9068 | 1 | 1.63e6 | 1.59e6 | 1.20e6 | 1.28e6 | inactive |
| cer | 1 | 1.53e6 | 1.56e6 | 1.14e6 | 1.24e6 | inactive |
| CG10713 | 1 | 1.35e6 | 1.46e6 | 1.27e6 | 1.27e6 | inactive |
| Rh4 | 1 | 1.38e6 | 1.67e6 | 1.41e6 | 1.47e6 | inactive |
| dimm | 1 | 1.55e6 | 1.67e6 | 1.35e6 | 4.99e5 | inactive |
| RpS23 | 1 | 9.13e5 | 1.05e6 | 8.35e5 | 8.44e5 | inactive |
| Mtl | 1 | 1.57e6 | 1.54e6 | 1.01e6 | 1.18e6 | inactive |
| CG42820 + CG42819 | 1 | 1.65e6 | 1.74e6 | 1.36e6 | 1.50e6 | inactive |
| CG42820 + CG42819 | 2 | 1.81e6 | 1.87e6 | 1.11e6 | 1.30e6 | inactive |
| CG5377 | 1 | 1.33e6 | 1.34e6 | 1.09e6 | 1.18e6 | inactive |
| Nop60B | 1 | 1.26e6 | 1.32e6 | 1.12e6 | 1.22e6 | inactive |
| CG15548 | 1 | 1.46e6 | 1.49e6 | 1.06e6 | 1.14e6 | inactive |
| CG14949 | 1 | 1.49e6 | 1.38e6 | 1.03e6 | 1.33e6 | inactive |
| CG9815 | 1 | 1.55e6 | 1.59e6 | 1.23e6 | 1.35e6 | inactive |
| Prx3 | 1 | 1.57e6 | 1.60e6 | 1.20e6 | 1.25e6 | inactive |
| sens | 1 | 8.95e5 | 7.37e5 | 4.55e5 | 6.48e5 | active |
| CG6788 | 1 | 1.48e6 | 1.65e6 | 1.06e6 | 1.12e6 | inactive |
| GIIIspla2 | 1 | 5.56e5 | – | 8.08e5 | – | inactive |
| Mos | 1 | 1.74e6 | 1.79e6 | 1.40e6 | 1.58e6 | inactive |
| CG5892 | 1 | 1.36e6 | 1.38e6 | 1.00e6 | 9.63e5 | inactive |
| Dred | 1 | 1.31e6 | 1.59e6 | 1.25e6 | 1.35e6 | inactive |
| zfh1 | 1 | 1.25e6 | 1.50e6 | 8.63e5 | 9.14e5 | inactive |
| zfh1 | 2 | 4.05e5 | – | 5.97e5 | – | inactive |
| slou | 1 | 1.41e6 | 1.39e6 | 1.10e6 | 1.20e6 | inactive |
| GATAd | 1 | 1.40e6 | 1.44e6 | 1.20e6 | 1.34e6 | inactive |
| CG1494 | 1 | 1.56e6 | 1.60e6 | 1.15e6 | 1.30e6 | inactive |
| Sh | 1 | 8.44e5 | 9.16e5 | 4.48e5 | 6.19e5 | active |
| Sh | 2 | 1.29e6 | 1.59e6 | 1.18e6 | 1.23e6 | inactive |
| Sh | 3 | 1.65e6 | 1.69e6 | 1.18e6 | 1.20e6 | inactive |
| Sh | 4 | 1.50e6 | 1.51e6 | 1.02e6 | 1.13e6 | inactive |
